The target in assay [1] is T1, recombinant ANXA7 (without GFP) (human) (UniProt P20073).
T1 sequence: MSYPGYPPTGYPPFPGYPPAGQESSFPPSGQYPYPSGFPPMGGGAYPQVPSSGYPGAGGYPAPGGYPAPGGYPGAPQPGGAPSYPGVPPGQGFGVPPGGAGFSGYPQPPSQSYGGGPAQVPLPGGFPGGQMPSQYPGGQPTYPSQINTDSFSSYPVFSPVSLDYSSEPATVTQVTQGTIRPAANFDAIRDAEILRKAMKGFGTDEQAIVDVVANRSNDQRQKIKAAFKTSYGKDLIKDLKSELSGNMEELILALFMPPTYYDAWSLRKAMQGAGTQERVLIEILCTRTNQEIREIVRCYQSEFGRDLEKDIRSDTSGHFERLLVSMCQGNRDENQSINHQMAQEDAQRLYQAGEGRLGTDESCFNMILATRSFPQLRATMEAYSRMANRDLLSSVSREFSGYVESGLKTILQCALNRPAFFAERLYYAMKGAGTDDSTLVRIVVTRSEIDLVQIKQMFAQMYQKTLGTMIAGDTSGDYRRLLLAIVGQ
The assay can be described thus: recruitment to supported lipid membrane patches (time-lapse fluorescence microscopy); POPC/POPS 9:1 membrane patches with free edges on mica; 50 mM TRIS, 100 mM NaCl, 2 mM CaCl2, pH 7.4, 22 °C; 100 pmole of ANXA7 and ALG-2 added; ALG-2-GFP imaged; both purified.

Chains of the proteins cited; added tags and fusions are not shown.
UniProt O75340: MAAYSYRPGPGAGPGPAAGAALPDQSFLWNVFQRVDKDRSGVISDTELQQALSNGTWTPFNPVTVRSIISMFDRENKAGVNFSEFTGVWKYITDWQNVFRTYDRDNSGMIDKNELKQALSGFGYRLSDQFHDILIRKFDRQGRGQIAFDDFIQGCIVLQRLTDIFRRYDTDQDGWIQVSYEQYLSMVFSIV

For assay [2], the target named is T2, ANXA7-monomericRFP (annexin A7 with C-terminal monomeric RFP tag) (human) (UniProt P20073).
T2 sequence: T1 sequence
Description: co-IP; lysates of MCF7-p95ErbB2 cells overexpressing ANXA7-mRFP or ANXA7-tGFP, exposed to scrape injury; IP with tGFP antibody on protein A agarose or RFP-Trap agarose, overnight at 4 °C; lysis buffer 50 mM Tris-HCl pH 7.4, 150 mM NaCl, 0.5% NP40, 1 mM EDTA; blot with ANXA7 and ALG-2 antibodies.

Assay [3] concerns the target T3, ANXA7-turboGFP (annexin A7 with C-terminal turbo-GFP tag) (human) (UniProt P20073).
T3 sequence: T1 sequence
The assay is described as above.

No constants are given. Whether binding was seen depends on the method and setting. For part of these data: Binding seen in cells or lysates may run through a third protein. Some binding calls cover weakened binding; strength is not graded here. Where a sequence is shown, tags or fusion partners need not be part of it.

As to “recombinant ALG-2-GFP (from UniProt O75340 1-191)”, the binding result in assay [1] is reported as “binds”.

Regarding “apoptosis-linked gene-2 (ALG-2), endogenous (from UniProt O75340 1-191)”, the binding entry in assay [2] and in assay [3] was “binds” in each case.
